Drawing on PMC8094117, this text covers binding for 1 molecule.

In assay [1] the target is T1, Sgo1-6His-3Flag (S. cerevisiae) (UniProt Q08490).
T1 sequence: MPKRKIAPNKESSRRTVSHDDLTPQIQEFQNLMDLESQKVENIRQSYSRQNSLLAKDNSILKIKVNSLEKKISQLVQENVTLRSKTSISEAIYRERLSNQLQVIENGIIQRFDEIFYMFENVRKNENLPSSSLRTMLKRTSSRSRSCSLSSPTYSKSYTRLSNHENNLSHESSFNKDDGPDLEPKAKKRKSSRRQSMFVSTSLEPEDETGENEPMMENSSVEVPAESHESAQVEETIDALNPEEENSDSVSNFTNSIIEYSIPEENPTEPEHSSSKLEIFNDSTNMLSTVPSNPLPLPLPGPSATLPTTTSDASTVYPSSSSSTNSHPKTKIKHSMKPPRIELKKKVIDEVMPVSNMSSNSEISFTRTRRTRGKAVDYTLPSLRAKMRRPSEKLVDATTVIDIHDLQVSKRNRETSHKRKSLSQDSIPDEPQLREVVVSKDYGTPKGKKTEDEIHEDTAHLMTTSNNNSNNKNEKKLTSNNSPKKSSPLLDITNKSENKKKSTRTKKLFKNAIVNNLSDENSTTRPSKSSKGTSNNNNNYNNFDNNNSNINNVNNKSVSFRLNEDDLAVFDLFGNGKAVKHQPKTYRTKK
As to the kind of experiment: affinity purification with mass spectrometry; Sgo1-6His-3Flag immunoprecipitated with anti-Flag Protein G Dynabeads from benzonase-treated lysates of benomyl-arrested cells grown at 30°C (wild type, siz1Δ siz2Δ, sgo1-4R, sgo1-3A); label-free quantitative MS in triplicate.

In assay [2] the target is Sgo1-4R-6His-3Flag (Sgo1-K56R K64R K70R K85R) (S. cerevisiae) (UniProt Q08490). The description is as above.

No constants are given. Whether binding was seen depends on the method and setting. In cells and extracts the contact can be indirect. A yes stands for co-enrichment or nearness to the bait. Other partners may have been found. For some assays here: Where a sequence is shown, tags or fusion partners need not be part of it.

B1: Brn1 (endogenous) (protein, UniProt P38170 1-754)
chain: MTTQLRYENNDDDERVEYNLFTNRSTMMANFEEWIKMATDNKINSRNSWNFALIDYFYDLDVLKDGENNINFQKASATLDGCIKIYSSRVDSVTTETGKLLSGLAQRKTNGASNGDDSNGGNGEGLGGDSDEANIEIDPLTGMPISNDPDVNNTRRRVYNRVLETTLVEFETIKMKELDQELIIDPLFKKALVDFDEGGAKSLLLNTLNIDNTARVIFDASIKDTQNVGQGKLQRKEEELIERDSLVDDENEPSQSLISTRNDSTVNDSVISAPSMEDEILSLGMDFIKFDQIAVCEISGSIEQLRNVVEDINQAKDFIENVNNRFDNFLTEEELQAAVPDNAEDDSDGFDMGMQQELCYPDENHDNTSHDEQDDDNVNSTTGSIFEKDLMAYFDENLNRNWRGREHWKVRNFKKANLVNKESDLLEETRTTIGDTTDKNTTDDKSMDTKKKHKQKKVLEIDFFKTDDSFEDKVFASKGRTKIDMPIKNRKNDTHYLLPDDFHFSTDRITRLFIKPGQKMSLFSHRKHTRGDVSSGLFEKSTVSANHSNNDIPTIADEHFWADNYERKEQEEKEKEQSKEVGDVVGGALDNPFEDDMDGVDFNQAFEGTDDNEEASVKLDLQDDEDHKFPIRENKVTYSRVSKKVDVRRLKKNVWRSINNLIQEHDSRKNREQSSNDSETHTEDESTKELKFSDIIQGISKMYSDDTLKDISTSFCFICLLHLANEHGLQITHTENYNDLIVNYEDLATTQAAS
On to B1, for which the binding result in assay [1] and in assay [2] was “binds” each time.
